# Results reported in the supplement of paper PMC8728848.
# This is one part of the list.
# B1: Clone646PsrP (Streptococcus pneumoniae) (protein)
# chain: MDHHHHHHHHASENLYFQGAPAINASLNIAKSETKVYTGEGVDSVYRVPIYYKLKVTNDGSKLTFTYTVTYVNPKTNDLGNISSMRPGYSIYNSGTSTQTMLTLGSDLGKPSGVKNYITDKNGRQVLSYNTSTMTTQGSGYTWGNGAQMNGFFAKKGYGLTSSWTVPITGTDTSFTFTPYAARTDRIGINYFNGGGKVVESSTTSQSLSQSKSLSVSAS
# Experiments:
# Experiment in all cases: glycan array binding signal (z-score within array); higher = stronger binding
# Details in all cases: glycan notation: IUPAC condensed, linker removed
# [1] = target: Gal(b1-3)GlcNAc(b1-6)[Gal(b1-3)]GalNAc
# Summary of the method: (§1)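 From the Consortium for Functional Glycomics database, 3228 arrays were curated, keeping only those whose protein sequence was available. Binding is given as a within-array Z-score averaged across arrays sharing a protein sequence and across linkers. Negative Z-scores can be read as non-binding.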
# Gal(b1-3)GlcNAc6S = target: Gal(b1-3)GlcNAc6S
# Summary of the method: as §1
# [2] = target: Gal(b1-3)[Fuc(a1-4)]GlcNAc
# Summary of the method: as §1
# [3] = target: Gal(b1-3)[Fuc(a1-4)]GlcNAc(b1-2)Man
# Summary of the method: as §1
# [4] = target: Gal(b1-3)[Fuc(a1-4)]GlcNAc(b1-2)Man(a1-3)[Gal(b1-3)[Fuc(a1-4)]GlcNAc(b1-2)Man(a1-6)]Man(b1-4)GlcNAc(b1-4)[Fuc(a1-6)]GlcNAc
# Summary of the method: as §1
# [5] = target: Gal(b1-3)[Fuc(a1-4)]GlcNAc(b1-3)Gal(b1-3)[Fuc(a1-4)]GlcNAc
# Summary of the method: as §1
# [6] = target: Gal(b1-3)[Fuc(a1-4)]GlcNAc(b1-3)Gal(b1-4)[Fuc(a1-3)]GlcNAc
# Summary of the method: as §1
# [7] = target: Gal(b1-3)[Fuc(a1-4)]GlcNAc(b1-6)GalNAc
# Summary of the method: as §1
# [8] = target: Gal(b1-3)[GlcNAc(b1-6)]GalNAc
# Summary of the method: as §1
# [9] = target: Gal(b1-3)[Neu5Ac(a2-6)]GalNAc
# Summary of the method: as §1
# [10] = target: Gal(b1-3)[Neu5Ac(a2-6)]GlcNAc(b1-4)Gal(b1-4)Glc
# Summary of the method: as §1
# [11] = target: Gal(b1-3)[Neu5Ac(b2-6)]GalNAc
# Summary of the method: as §1
# Gal(b1-4)Gal = target: Gal(b1-4)Gal
# Summary of the method: as §1
# [12] = target: Gal(b1-4)GalNAc(a1-3)[Fuc(a1-2)]Gal(b1-4)GlcNAc
# Summary of the method: as §1
# [13] = target: Gal(b1-4)GalNAc(b1-3)[Fuc(a1-2)]Gal(b1-4)GlcNAc
# Summary of the method: as §1
# Gal(b1-4)Glc = target: Gal(b1-4)Glc
# Summary of the method: as §1
# Gal(b1-4)Glc6S = target: Gal(b1-4)Glc6S
# Summary of the method: as §1
# Gal(b1-4)GlcNAc = target: Gal(b1-4)GlcNAc
# Summary of the method: as §1
# [14] = target: Gal(b1-4)GlcNAc(a1-6)Gal(b1-4)GlcNAc
# Summary of the method: as §1
# Gal(b1-4)GlcNAc(b1-2)Man = target: Gal(b1-4)GlcNAc(b1-2)Man
# Summary of the method: as §1
# [15] = target: Gal(b1-4)GlcNAc(b1-2)Man(a1-3)Man(b1-4)GlcNAc(b1-4)GlcNAc
# Summary of the method: as §1
# [16] = target: Gal(b1-4)GlcNAc(b1-2)Man(a1-3)[Gal(b1-4)GlcNAc(b1-2)Man(a1-6)]Man(b1-4)GlcNAc(b1-4)GlcNAc
# Summary of the method: as §1
# [17] = target: Gal(b1-4)GlcNAc(b1-2)Man(a1-3)[Gal(b1-4)GlcNAc(b1-2)Man(a1-6)]Man(b1-4)GlcNAc(b1-4)[Fuc(a1-6)]GlcNAc
# Summary of the method: as §1
# [18] = target: Gal(b1-4)GlcNAc(b1-2)Man(a1-3)[Gal(b1-4)GlcNAc(b1-2)Man(a1-6)][Gal(b1-4)GlcNAc(b1-4)]Man(b1-4)GlcNAc(b1-4)[Fuc(a1-6)]GlcNAc
# Summary of the method: as §1
# [19] = target: Gal(b1-4)GlcNAc(b1-2)Man(a1-3)[Gal(b1-4)GlcNAc(b1-2)Man(a1-6)][GlcNAc(b1-4)]Man(b1-4)GlcNAc(b1-4)[Fuc(a1-6)]GlcNAc
# Summary of the method: as §1
# [20] = target: Gal(b1-4)GlcNAc(b1-2)Man(a1-3)[GlcNAc(b1-2)Man(a1-6)]Man(b1-4)GlcNAc(b1-4)GlcNAc
# Summary of the method: as §1
# [21] = target: Gal(b1-4)GlcNAc(b1-2)Man(a1-3)[GlcNAc(b1-4)][Gal(b1-4)GlcNAc(b1-2)Man(a1-6)]Man(b1-4)GlcNAc(b1-4)GlcNAc
# Summary of the method: as §1
# [22] = target: Gal(b1-4)GlcNAc(b1-2)Man(a1-3)[Man(a1-6)]Man(b1-4)GlcNAc(b1-4)GlcNAc
# Summary of the method: as §1
# [23] = target: Gal(b1-4)GlcNAc(b1-2)Man(a1-6)Man(b1-4)GlcNAc(b1-4)GlcNAc
# Summary of the method: as §1
# [24] = target: Gal(b1-4)GlcNAc(b1-2)Man(a1-6)[GlcNAc(b1-2)Man(a1-3)]Man(b1-4)GlcNAc(b1-4)GlcNAc
# Summary of the method: as §1
# [25] = target: Gal(b1-4)GlcNAc(b1-2)Man(a1-6)[Man(a1-3)]Man(b1-4)GlcNAc(b1-4)GlcNAc
# Summary of the method: as §1
# [26] = target: Gal(b1-4)GlcNAc(b1-2)[Gal(b1-4)GlcNAc(b1-4)]Man(a1-3)[Gal(b1-4)GlcNAc(b1-2)Man(a1-6)]Man(b1-4)GlcNAc(b1-4)GlcNAc
# Summary of the method: as §1
# [27] = target: Gal(b1-4)GlcNAc(b1-2)[Gal(b1-4)GlcNAc(b1-4)]Man(a1-3)[Gal(b1-4)GlcNAc(b1-2)[Gal(b1-4)GlcNAc(b1-6)]Man(a1-6)]Man(b1-4)GlcNAc(b1-4)GlcNAc
# Summary of the method: as §1
# [28] = target: Gal(b1-4)GlcNAc(b1-2)[Gal(b1-4)GlcNAc(b1-4)]Man(a1-3)[GlcNAc(b1-4)][Gal(b1-4)GlcNAc(b1-2)Man(a1-6)]Man(b1-4)GlcNAc(b1-4)GlcNAc
# Summary of the method: as §1
# [29] = target: Gal(b1-4)GlcNAc(b1-2)[Gal(b1-4)GlcNAc(b1-4)]Man(a1-3)[GlcNAc(b1-4)][Gal(b1-4)GlcNAc(b1-2)[Gal(b1-4)GlcNAc(b1-6)]Man(a1-6)]Man(b1-4)GlcNAc(b1-4)GlcNAc
# Summary of the method: as §1
# [30] = target: Gal(b1-4)GlcNAc(b1-2)[Gal(b1-4)GlcNAc(b1-6)]Man(a1-6)[Gal(b1-4)GlcNAc(b1-2)Man(a1-3)]Man(b1-4)GlcNAc(b1-4)GlcNAc
# Summary of the method: as §1
# [31] = target: Gal(b1-4)GlcNAc(b1-2)[Gal(b1-4)GlcNAc(b1-6)]Man(a1-6)[Gal(b1-4)GlcNAc(b1-2)Man(a1-3)]Man(b1-4)GlcNAc(b1-4)[Fuc(a1-6)]GlcNAc
# Summary of the method: as §1
# [32] = target: Gal(b1-4)GlcNAc(b1-2)[Gal(b1-4)GlcNAc(b1-6)]Man(a1-6)[GlcNAc(b1-4)][Gal(b1-4)GlcNAc(b1-2)Man(a1-3)]Man(b1-4)GlcNAc(b1-4)GlcNAc
# Summary of the method: as §1
# [33] = target: Gal(b1-4)GlcNAc(b1-2)[Gal(b1-4)GlcNAc(b1-6)]Man(a1-6)[GlcNAc(b1-4)][Gal(b1-4)GlcNAc(b1-2)[Gal(b1-4)GlcNAc(b1-4)]Man(a1-3)]Man(b1-4)GlcNAc(b1-4)[Fuc(a1-6)]GlcNAc
# Summary of the method: as §1
# [34] = target: Gal(b1-4)GlcNAc(b1-3)Gal(b1-3)GalNAc
# Summary of the method: as §1
# [35] = target: Gal(b1-4)GlcNAc(b1-3)Gal(b1-3)GlcNAc
# Summary of the method: as §1
# [36] = target: Gal(b1-4)GlcNAc(b1-3)Gal(b1-4)Glc
# Summary of the method: as §1
# [37] = target: Gal(b1-4)GlcNAc(b1-3)Gal(b1-4)GlcNAc
# Summary of the method: as §1
# [38] = target: Gal(b1-4)GlcNAc(b1-3)Gal(b1-4)GlcNAc(b1-2)Man(a1-3)[Gal(b1-4)GlcNAc(b1-3)Gal(b1-4)GlcNAc(b1-2)Man(a1-6)]Man(b1-4)GlcNAc(b1-4)GlcNAc
# Summary of the method: as §1
# [39] = target: Gal(b1-4)GlcNAc(b1-3)Gal(b1-4)GlcNAc(b1-2)Man(a1-3)[Gal(b1-4)GlcNAc(b1-3)Gal(b1-4)GlcNAc(b1-2)Man(a1-6)]Man(b1-4)GlcNAc(b1-4)[Fuc(a1-6)]GlcNAc
# Summary of the method: as §1
binder,measurement,setting,value
B1,glycan array binding signal (z-score),[1],1.07
same,glycan array binding signal (z-score),Gal(b1-3)GlcNAc6S,-0.416
same,glycan array binding signal (z-score),[2],-0.031
same,glycan array binding signal (z-score),[3],-0.526
same,glycan array binding signal (z-score),[4],-0.087
same,glycan array binding signal (z-score),[5],-0.905
same,glycan array binding signal (z-score),[6],-0.797
same,glycan array binding signal (z-score),[7],-0.757
same,glycan array binding signal (z-score),[8],0.41
same,glycan array binding signal (z-score),[9],-0.596
same,glycan array binding signal (z-score),[10],-0.554
same,glycan array binding signal (z-score),[11],-0.931
same,glycan array binding signal (z-score),Gal(b1-4)Gal,-0.923
same,glycan array binding signal (z-score),[12],-0.706
same,glycan array binding signal (z-score),[13],-0.989
same,glycan array binding signal (z-score),Gal(b1-4)Glc,0.581
same,glycan array binding signal (z-score),Gal(b1-4)Glc6S,-0.138
same,glycan array binding signal (z-score),Gal(b1-4)GlcNAc,0.298
same,glycan array binding signal (z-score),[14],1.03
same,glycan array binding signal (z-score),Gal(b1-4)GlcNAc(b1-2)Man,1.82
same,glycan array binding signal (z-score),[15],-0.345
same,glycan array binding signal (z-score),[16],-0.528
same,glycan array binding signal (z-score),[17],-0.109
same,glycan array binding signal (z-score),[18],-0.785
same,glycan array binding signal (z-score),[19],-0.984
same,glycan array binding signal (z-score),[20],-0.502
same,glycan array binding signal (z-score),[21],-0.84
same,glycan array binding signal (z-score),[22],-0.156
same,glycan array binding signal (z-score),[23],-0.442
same,glycan array binding signal (z-score),[24],-0.281
same,glycan array binding signal (z-score),[25],-0.948
same,glycan array binding signal (z-score),[26],-0.869
same,glycan array binding signal (z-score),[27],-0.986
same,glycan array binding signal (z-score),[28],-0.761
same,glycan array binding signal (z-score),[29],-0.776
same,glycan array binding signal (z-score),[30],-0.464
same,glycan array binding signal (z-score),[31],-0.52
same,glycan array binding signal (z-score),[32],-0.887
same,glycan array binding signal (z-score),[33],-0.183
same,glycan array binding signal (z-score),[34],0.058
same,glycan array binding signal (z-score),[35],-0.913
same,glycan array binding signal (z-score),[36],-0.123
same,glycan array binding signal (z-score),[37],-0.073
same,glycan array binding signal (z-score),[38],0.169
same,glycan array binding signal (z-score),[39],-0.383

# Quoted at random: 3 records from the list.
binder,measurement,setting,value
B1,glycan array binding signal (z-score),[35],-0.913
same,glycan array binding signal (z-score),[11],-0.931
same,glycan array binding signal (z-score),[10],-0.554
